The list shows a part of the results.
Compound: C1=CC=C(C=C1)[C@H](COC2=CC3=C(C=C2)NC(=O)N3)NC(=O)C4=CC=CN(C4=O)CC5=CC(=C(C=C5)F)F
Assay: log2 fold change, soluble protein after heating vs DMSO (PISA); higher = thermal stabilisation; K562 lysate, 10 uM; active = over 0.2 and 3.5 SD of the protein, either way, in both replicates (recomputed)
Method in brief: (§1)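 Pellets of K562 cells were dounce-homogenised in PBS pH 7.4 with 1 mM MgCl2, and the crude extract was held at 1 mg/mL protein for a 30 min treatment with 10 μM compound. Aliquots were heated for 3 min over 48°C-58°C and pooled before NP-40 was added to 0.5% at 4°C. The supernatant from 21,000xg for 90 min was quantified by TMTpro 16plex LC-MS/MS with channel sums equalised. Values are reported from duplicates as log-two fold change in thermal stability relative to solvent controls.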

Protein sequences, listed by entry. Tags and fused reporters are not part of them. Lines headed by an entry give the natural chain unless they say otherwise; changes in a name come on top.
UniProt O95433, whole entry, looked up: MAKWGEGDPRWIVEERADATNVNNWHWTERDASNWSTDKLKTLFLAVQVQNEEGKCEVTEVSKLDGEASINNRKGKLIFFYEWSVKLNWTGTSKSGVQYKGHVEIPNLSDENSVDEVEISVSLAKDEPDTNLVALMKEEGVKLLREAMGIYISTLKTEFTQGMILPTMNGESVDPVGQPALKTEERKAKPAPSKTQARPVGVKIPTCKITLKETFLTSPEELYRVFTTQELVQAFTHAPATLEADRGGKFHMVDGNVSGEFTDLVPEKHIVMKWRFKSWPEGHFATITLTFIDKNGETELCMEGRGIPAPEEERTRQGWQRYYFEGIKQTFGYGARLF
UniProt O60488: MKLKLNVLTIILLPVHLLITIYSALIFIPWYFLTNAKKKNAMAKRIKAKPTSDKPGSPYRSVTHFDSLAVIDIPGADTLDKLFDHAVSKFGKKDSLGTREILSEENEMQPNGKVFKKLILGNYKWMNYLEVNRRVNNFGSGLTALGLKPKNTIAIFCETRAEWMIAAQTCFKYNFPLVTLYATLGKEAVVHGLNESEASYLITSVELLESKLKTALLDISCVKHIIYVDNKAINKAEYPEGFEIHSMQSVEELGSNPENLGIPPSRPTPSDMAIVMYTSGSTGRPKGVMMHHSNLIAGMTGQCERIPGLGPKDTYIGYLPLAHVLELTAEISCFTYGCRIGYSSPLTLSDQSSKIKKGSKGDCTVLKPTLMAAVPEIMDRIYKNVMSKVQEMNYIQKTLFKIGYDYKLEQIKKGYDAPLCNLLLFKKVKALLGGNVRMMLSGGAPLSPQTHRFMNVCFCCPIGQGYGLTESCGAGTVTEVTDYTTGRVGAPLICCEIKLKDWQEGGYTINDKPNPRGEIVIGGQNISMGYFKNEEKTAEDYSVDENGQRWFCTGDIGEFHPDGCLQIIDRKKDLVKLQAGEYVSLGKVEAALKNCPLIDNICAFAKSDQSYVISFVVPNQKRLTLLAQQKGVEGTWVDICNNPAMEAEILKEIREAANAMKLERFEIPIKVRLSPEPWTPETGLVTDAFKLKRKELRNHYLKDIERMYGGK
UniProt Q96BJ3: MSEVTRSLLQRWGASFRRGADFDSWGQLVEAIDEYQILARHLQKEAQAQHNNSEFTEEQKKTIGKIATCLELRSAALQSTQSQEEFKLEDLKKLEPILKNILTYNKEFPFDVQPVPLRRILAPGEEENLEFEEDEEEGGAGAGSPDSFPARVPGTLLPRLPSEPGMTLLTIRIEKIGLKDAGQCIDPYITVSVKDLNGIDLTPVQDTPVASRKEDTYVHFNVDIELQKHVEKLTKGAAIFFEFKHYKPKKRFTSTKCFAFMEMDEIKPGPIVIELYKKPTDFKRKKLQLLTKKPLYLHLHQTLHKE
UniProt O00170: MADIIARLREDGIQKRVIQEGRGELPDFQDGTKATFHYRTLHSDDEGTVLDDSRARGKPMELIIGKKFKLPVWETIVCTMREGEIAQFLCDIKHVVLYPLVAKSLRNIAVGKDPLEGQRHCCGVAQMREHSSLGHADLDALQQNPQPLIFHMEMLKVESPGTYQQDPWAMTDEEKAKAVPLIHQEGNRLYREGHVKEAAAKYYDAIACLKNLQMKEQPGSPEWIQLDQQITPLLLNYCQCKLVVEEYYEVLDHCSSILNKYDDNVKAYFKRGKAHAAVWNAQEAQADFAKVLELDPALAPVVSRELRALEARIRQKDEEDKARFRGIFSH
UniProt Q3LIE5: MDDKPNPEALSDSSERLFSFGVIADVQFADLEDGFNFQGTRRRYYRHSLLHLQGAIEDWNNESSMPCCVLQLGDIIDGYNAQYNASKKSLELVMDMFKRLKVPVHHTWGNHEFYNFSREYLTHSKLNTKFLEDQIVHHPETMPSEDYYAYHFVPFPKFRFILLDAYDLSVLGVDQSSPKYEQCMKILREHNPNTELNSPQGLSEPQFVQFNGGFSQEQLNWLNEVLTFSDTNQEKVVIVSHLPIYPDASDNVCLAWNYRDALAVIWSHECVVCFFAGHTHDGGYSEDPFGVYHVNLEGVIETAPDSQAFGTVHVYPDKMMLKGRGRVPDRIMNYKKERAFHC
UniProt P14621: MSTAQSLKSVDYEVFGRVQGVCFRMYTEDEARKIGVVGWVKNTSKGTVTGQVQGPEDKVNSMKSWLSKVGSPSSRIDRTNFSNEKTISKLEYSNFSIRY
UniProt O43865, whole entry, looked up: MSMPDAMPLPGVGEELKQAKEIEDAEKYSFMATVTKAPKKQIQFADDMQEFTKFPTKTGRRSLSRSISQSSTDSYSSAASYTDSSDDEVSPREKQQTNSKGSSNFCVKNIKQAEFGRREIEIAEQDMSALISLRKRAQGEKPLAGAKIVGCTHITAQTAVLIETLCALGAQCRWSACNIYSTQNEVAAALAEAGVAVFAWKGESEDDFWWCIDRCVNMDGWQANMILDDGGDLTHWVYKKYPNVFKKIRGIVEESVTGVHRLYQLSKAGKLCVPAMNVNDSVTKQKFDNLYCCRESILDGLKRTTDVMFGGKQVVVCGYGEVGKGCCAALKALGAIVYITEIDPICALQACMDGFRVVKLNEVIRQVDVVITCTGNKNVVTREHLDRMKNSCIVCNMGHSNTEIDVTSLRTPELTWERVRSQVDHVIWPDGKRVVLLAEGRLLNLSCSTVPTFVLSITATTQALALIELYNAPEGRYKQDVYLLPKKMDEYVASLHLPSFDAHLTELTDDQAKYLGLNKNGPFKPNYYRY
UniProt Q6ULP2: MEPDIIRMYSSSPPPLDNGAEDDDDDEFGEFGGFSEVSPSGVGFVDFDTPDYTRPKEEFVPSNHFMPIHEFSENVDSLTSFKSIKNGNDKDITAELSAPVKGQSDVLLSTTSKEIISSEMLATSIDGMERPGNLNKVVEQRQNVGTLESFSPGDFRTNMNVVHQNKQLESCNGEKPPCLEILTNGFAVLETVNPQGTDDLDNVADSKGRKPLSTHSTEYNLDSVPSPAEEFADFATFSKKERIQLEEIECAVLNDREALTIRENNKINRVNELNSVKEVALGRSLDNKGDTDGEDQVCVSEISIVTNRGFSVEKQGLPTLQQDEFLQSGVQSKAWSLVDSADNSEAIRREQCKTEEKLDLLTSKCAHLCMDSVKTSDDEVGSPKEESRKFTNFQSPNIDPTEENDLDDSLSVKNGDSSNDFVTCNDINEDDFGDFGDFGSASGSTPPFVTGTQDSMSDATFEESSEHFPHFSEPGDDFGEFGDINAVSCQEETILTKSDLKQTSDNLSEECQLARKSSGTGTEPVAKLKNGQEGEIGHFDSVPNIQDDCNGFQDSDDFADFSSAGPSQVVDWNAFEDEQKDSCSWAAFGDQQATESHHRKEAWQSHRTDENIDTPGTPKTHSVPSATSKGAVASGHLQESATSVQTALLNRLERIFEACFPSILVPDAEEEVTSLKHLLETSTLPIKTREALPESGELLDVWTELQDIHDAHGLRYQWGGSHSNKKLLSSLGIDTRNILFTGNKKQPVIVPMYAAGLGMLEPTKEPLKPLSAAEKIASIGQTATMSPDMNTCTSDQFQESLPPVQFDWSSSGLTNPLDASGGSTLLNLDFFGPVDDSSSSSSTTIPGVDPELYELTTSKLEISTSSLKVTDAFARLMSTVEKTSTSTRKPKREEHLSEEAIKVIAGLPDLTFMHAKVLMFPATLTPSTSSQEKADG
UniProt O14672: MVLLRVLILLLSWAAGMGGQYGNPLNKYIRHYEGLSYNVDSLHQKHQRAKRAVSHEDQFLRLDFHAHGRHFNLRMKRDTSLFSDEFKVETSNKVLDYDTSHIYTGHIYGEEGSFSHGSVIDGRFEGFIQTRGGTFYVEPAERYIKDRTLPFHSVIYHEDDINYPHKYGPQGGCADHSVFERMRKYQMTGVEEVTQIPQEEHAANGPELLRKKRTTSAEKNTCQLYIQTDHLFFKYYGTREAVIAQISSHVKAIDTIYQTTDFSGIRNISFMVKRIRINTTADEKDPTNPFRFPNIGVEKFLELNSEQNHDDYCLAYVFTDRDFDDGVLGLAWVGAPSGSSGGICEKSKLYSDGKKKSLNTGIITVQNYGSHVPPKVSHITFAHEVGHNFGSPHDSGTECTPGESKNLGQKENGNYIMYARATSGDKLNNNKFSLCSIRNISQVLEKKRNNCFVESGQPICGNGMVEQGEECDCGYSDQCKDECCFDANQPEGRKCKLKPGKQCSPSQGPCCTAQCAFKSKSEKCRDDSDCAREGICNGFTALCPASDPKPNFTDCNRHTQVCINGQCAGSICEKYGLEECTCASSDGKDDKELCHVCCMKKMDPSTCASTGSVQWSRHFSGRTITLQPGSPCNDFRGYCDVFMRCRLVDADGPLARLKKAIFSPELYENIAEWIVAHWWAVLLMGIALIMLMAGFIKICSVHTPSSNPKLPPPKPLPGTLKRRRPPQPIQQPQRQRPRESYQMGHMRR
UniProt P55196: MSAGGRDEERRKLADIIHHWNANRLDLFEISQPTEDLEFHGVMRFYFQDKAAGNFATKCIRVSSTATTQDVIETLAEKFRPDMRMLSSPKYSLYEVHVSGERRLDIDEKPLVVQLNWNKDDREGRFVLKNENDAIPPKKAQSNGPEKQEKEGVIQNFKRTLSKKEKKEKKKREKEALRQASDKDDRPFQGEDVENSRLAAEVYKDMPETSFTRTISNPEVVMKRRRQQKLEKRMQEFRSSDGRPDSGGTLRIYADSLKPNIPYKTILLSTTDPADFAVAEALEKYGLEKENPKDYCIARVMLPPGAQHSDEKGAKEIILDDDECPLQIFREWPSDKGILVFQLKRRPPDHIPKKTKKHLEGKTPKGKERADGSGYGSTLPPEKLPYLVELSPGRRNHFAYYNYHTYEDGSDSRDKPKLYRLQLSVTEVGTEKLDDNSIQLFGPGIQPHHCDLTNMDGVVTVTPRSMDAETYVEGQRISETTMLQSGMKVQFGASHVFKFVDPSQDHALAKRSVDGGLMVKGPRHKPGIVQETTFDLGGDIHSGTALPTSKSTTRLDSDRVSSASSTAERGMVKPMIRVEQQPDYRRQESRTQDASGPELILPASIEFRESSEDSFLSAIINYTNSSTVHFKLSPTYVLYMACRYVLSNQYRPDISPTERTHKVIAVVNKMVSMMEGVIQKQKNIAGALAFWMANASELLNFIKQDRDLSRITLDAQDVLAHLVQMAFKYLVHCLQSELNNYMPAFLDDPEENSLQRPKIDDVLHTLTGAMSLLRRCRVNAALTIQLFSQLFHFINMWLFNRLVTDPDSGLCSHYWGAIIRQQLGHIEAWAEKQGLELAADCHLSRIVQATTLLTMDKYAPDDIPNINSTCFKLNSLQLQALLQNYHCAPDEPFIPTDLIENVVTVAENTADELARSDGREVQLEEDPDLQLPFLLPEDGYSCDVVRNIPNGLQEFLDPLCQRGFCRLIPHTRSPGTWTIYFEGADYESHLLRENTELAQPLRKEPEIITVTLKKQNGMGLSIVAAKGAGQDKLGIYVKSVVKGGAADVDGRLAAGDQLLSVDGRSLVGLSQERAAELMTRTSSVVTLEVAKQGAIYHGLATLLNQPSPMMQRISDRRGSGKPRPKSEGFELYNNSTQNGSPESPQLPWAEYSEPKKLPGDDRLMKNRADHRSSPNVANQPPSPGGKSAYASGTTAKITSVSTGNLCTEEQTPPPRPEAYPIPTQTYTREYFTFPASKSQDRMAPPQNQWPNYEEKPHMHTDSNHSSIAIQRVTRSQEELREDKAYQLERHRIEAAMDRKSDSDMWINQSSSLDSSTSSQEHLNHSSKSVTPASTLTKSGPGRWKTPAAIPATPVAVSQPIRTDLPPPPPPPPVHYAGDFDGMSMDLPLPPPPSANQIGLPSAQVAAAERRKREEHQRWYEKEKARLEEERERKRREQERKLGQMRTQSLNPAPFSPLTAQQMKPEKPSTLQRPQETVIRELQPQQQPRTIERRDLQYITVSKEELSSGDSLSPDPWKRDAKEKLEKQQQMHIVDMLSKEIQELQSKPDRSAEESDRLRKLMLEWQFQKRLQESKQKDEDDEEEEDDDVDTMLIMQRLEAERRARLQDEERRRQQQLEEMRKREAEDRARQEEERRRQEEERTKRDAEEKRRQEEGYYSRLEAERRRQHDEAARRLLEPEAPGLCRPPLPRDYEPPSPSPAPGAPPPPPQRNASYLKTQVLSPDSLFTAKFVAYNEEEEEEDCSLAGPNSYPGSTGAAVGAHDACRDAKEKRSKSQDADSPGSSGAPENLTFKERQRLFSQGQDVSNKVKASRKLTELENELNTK
UniProt Q9H568: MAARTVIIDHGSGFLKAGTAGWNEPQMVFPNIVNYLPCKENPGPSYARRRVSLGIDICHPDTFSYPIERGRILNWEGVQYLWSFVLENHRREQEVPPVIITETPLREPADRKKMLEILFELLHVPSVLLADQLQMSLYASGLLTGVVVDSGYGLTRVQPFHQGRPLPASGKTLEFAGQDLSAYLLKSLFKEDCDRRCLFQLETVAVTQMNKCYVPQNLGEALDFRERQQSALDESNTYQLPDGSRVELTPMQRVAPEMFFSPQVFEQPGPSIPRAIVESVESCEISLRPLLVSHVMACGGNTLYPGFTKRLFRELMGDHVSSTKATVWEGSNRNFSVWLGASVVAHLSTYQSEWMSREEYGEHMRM

Row | Target | log2 fold change
1 | AHSA1 (UniProt O95433) | inactive: 0.047
2 | ACTR3 (UniProt P61158) | inactive: 0.049
3 | ACSL4 (UniProt O60488) | inactive: -0.058
4 | ACSS1 (UniProt Q9NUB1) | inactive: 0.009
5 | AFAP1L1 (UniProt Q8TED9) | inactive: 0.048
6 | AIDA (UniProt Q96BJ3) | inactive: 0.001
7 | AIP (UniProt O00170) | inactive: 0.012
8 | AHSP (UniProt Q9NZD4) | inactive: 0.02
9 | ACOX3 (UniProt O15254) | inactive: 0.209
10 | AHCY (UniProt P23526) | inactive: 0.004
11 | ACTR3B (UniProt Q9P1U1) | inactive: 0.015
12 | ADD1 isoform 4 (UniProt P35611) | inactive: 0.22
13 | AKAP10 (UniProt O43572) | inactive: -0.324
14 | ADPRM (UniProt Q3LIE5) | inactive: -0.091
15 | AFDN (UniProt J3KN01) | inactive: -0.051
16 | ACSL5 isoform 3 (UniProt Q9ULC5) | inactive: -0.084
17 | AKR7A2 (UniProt O43488) | inactive: 0

Row | Target | log2 fold change
18 | ACTB, A0A2R8YGF8 | inactive: 0.046
19 | AKR1B1 (UniProt P15121) | inactive: 0.015
20 | ACTN2, A0A494C031 | inactive: -0.079
21 | ADD1 isoform 3 (UniProt P35611) | inactive: 0.03
22 | ACYP2 (UniProt P14621) | inactive: -0.061
23 | AGGF1 (UniProt Q8N302) | inactive: 0.042
24 | AEBP2 (UniProt Q6ZN18) | inactive: 0.097
25 | AIFM2 (UniProt Q9BRQ8) | active: 0.668
26 | ADAM15 (UniProt Q13444) | inactive: 0.007
27 | AHCYL1 (UniProt O43865) | inactive: -0.011
28 | AFTPH isoform 9 (UniProt Q6ULP2) | inactive: -0.024
29 | ADPGK (UniProt Q9BRR6) | inactive: -0.02
30 | ADAM10 (UniProt O14672) | inactive: -0.003
31 | AFDN isoform 1 (UniProt P55196) | inactive: -0.013
32 | ACTL8 (UniProt Q9H568) | inactive: 0.072
33 | AK3 (UniProt Q9UIJ7) | inactive: 0.017

Compound: CC1=C(SC2=C1C(=N[C@H](C3=NN=C(N32)C)CC(=O)N)C4=CC=C(C=C4)Cl)C
Assay: as above
Method in brief: as §1

Row | Target | log2 fold change
34 | AHSA1 (UniProt O95433) | inactive: -0.009
35 | ACTR3 (UniProt P61158) | inactive: -0.026
36 | ACSL4 (UniProt O60488) | inactive: 0.046
37 | ACSS1 (UniProt Q9NUB1) | inactive: -0.064
38 | AFAP1L1 (UniProt Q8TED9) | inactive: 0.02
39 | AIDA (UniProt Q96BJ3) | inactive: 0.003
40 | AIP (UniProt O00170) | inactive: -0.023
41 | AHSP (UniProt Q9NZD4) | inactive: -0.083
42 | ACOX3 (UniProt O15254) | inactive: 0.224
43 | AHCY (UniProt P23526) | inactive: 0.021
44 | ACTR3B (UniProt Q9P1U1) | inactive: 0.089
45 | ADD1 isoform 4 (UniProt P35611) | inactive: 0.088
46 | AKAP10 (UniProt O43572) | inactive: 0.117
47 | ADPRM (UniProt Q3LIE5) | inactive: -0.038
48 | AFDN (UniProt J3KN01) | inactive: 0.024
49 | ACSL5 isoform 3 (UniProt Q9ULC5) | inactive: -0.005
50 | AKR7A2 (UniProt O43488) | inactive: 0.019

Row | Target | log2 fold change
51 | ACTB, A0A2R8YGF8 | inactive: 0.023
52 | AKR1B1 (UniProt P15121) | inactive: 0.066
53 | ACTN2, A0A494C031 | inactive: 0.075
54 | ADD1 isoform 3 (UniProt P35611) | inactive: 0.016
55 | ACYP2 (UniProt P14621) | inactive: -0.032
56 | AGGF1 (UniProt Q8N302) | inactive: 0.049
57 | AEBP2 (UniProt Q6ZN18) | inactive: -0.085
58 | AIFM2 (UniProt Q9BRQ8) | inactive: 0.008
59 | ADAM15 (UniProt Q13444) | inactive: -0.039
60 | AHCYL1 (UniProt O43865) | inactive: -0.003
61 | AFTPH isoform 9 (UniProt Q6ULP2) | inactive: 0.009
62 | ADPGK (UniProt Q9BRR6) | inactive: 0.032
63 | ADAM10 (UniProt O14672) | inactive: -0.012
64 | AFDN isoform 1 (UniProt P55196) | inactive: 0.019
65 | ACTL8 (UniProt Q9H568) | inactive: 0.029
66 | AK3 (UniProt Q9UIJ7) | inactive: -0.021

Compound: CC1=C2C(=CC=C1)N=C(N(C2=O)C3=CC=CC=C3C)CN4C=NC5=C(N=CN=C54)N
Assay: as above
Method in brief: as §1

Row | Target | log2 fold change
67 | AHSA1 (UniProt O95433) | inactive: 0
68 | ACTR3 (UniProt P61158) | inactive: 0.012
69 | ACSL4 (UniProt O60488) | inactive: 0.032
70 | AIDA (UniProt Q96BJ3) | inactive: -0.026
71 | AIP (UniProt O00170) | inactive: -0.006
72 | AHSP (UniProt Q9NZD4) | inactive: -0.002
73 | AHCY (UniProt P23526) | inactive: 0.002
74 | ACTR3B (UniProt Q9P1U1) | inactive: 0.063
75 | ADD1 isoform 4 (UniProt P35611) | inactive: 0.12
76 | ADPRM (UniProt Q3LIE5) | inactive: 0.087
77 | AFDN (UniProt J3KN01) | inactive: 0.001
78 | AKR7A2 (UniProt O43488) | inactive: 0.024
79 | ACTB, A0A2R8YGF8 | inactive: 0.098
80 | AKR1B1 (UniProt P15121) | inactive: 0.059
81 | ACTN2, A0A494C031 | inactive: 0.187
82 | ADD1 isoform 3 (UniProt P35611) | inactive: -0.01
83 | ACYP2 (UniProt P14621) | inactive: 0.011
84 | AGGF1 (UniProt Q8N302) | inactive: 0.024
85 | AIFM2 (UniProt Q9BRQ8) | inactive: 0.039
86 | AHCYL1 (UniProt O43865) | inactive: -0.011
87 | AFTPH isoform 9 (UniProt Q6ULP2) | inactive: -0.061
88 | ADPGK (UniProt Q9BRR6) | inactive: 0.059
89 | ADAM10 (UniProt O14672) | inactive: -0.014
90 | AFDN isoform 1 (UniProt P55196) | inactive: -0.008
91 | ACTL8 (UniProt Q9H568) | inactive: -0.041
92 | AK3 (UniProt Q9UIJ7) | inactive: -0.001

— the supplement of paper PMC10849652
